In the supplement of paper PMC7661543:
The effect of the compound repeats well; differences between the knockouts mostly do not.

Tested on: HCC-38
Experiment: relative cell number vs DMSO control (72 h) (% of DMSO); higher = less growth inhibition (more cells)
Description: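 QMAP-Seq: a pool of 5 breast cancer cell lines (ZR-75-1, SKBR3, HCC-38, MDA-MB-231, BT-20), each carrying 12 doxycycline-inducible Cas9 sgRNA perturbations (11 knockouts plus non-targeting sgNT), was treated with compounds for 72 h at four 10-fold doses (10 nM-10 uM or 1 nM-1 uM range). Barcodes were amplified and sequenced, and cell number was interpolated from 293T spike-in standard curves. The result is expressed as % of the median of DMSO wells. Two biological replicates.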

FC(F)c1nc2ccccc2n1-c1nc(N2CCOCC2)nc(N2CCOCC2)n1 [ZSTK474]
Conditions | relative cell number
sgRNA knockout: sgATF3, 10 nM | 92.3
sgRNA knockout: sgATF3, 100 nM | 91.9
sgRNA knockout: sgATF3, 1000 nM | 80
sgRNA knockout: sgATF3, 10000 nM | 55.6
sgRNA knockout: sgATF4, 10 nM | 95.5
sgRNA knockout: sgATF4, 100 nM | 91.62
sgRNA knockout: sgATF4, 1000 nM | 75.7
sgRNA knockout: sgATF4, 10000 nM | 58.6
sgRNA knockout: sgATF6, 10 nM | 98
sgRNA knockout: sgATF6, 100 nM | 104
sgRNA knockout: sgATF6, 1000 nM | 67.2
sgRNA knockout: sgATF6, 10000 nM | 57.9
sgRNA knockout: sgATG7, 10 nM | 100
sgRNA knockout: sgATG7, 100 nM | 101.8
sgRNA knockout: sgATG7, 1000 nM | 77.99
sgRNA knockout: sgATG7, 10000 nM | 56.8
sgRNA knockout: sgERN1, 10 nM | 89.4
sgRNA knockout: sgERN1, 100 nM | 93.8
sgRNA knockout: sgERN1, 1000 nM | 86.2
sgRNA knockout: sgERN1, 10000 nM | 67.8
sgRNA knockout: sgHSF1, 10 nM | 77.4
sgRNA knockout: sgHSF1, 100 nM | 98.6
sgRNA knockout: sgHSF1, 1000 nM | 79.7
sgRNA knockout: sgHSF1, 10000 nM | 67.4
sgRNA knockout: sgHSF2, 10 nM | 93.3
sgRNA knockout: sgHSF2, 100 nM | 113
sgRNA knockout: sgHSF2, 1000 nM | 71
sgRNA knockout: sgHSF2, 10000 nM | 60.5
sgRNA knockout: sgKEAP1, 10 nM | 84.2
sgRNA knockout: sgKEAP1, 100 nM | 107
sgRNA knockout: sgKEAP1, 1000 nM | 68.5
sgRNA knockout: sgKEAP1, 10000 nM | 69.4
sgRNA knockout: sgNFE2L2, 10 nM | 101
sgRNA knockout: sgNFE2L2, 100 nM | 96
sgRNA knockout: sgNFE2L2, 1000 nM | 75.6
sgRNA knockout: sgNFE2L2, 10000 nM | 56.7
sgRNA knockout: sgSLC35F2, 10 nM | 101
sgRNA knockout: sgSLC35F2, 100 nM | 97.3
sgRNA knockout: sgSLC35F2, 1000 nM | 80.7
sgRNA knockout: sgSLC35F2, 10000 nM | 57.8
sgRNA knockout: sgXBP1, 10 nM | 95
sgRNA knockout: sgXBP1, 100 nM | 99.9
sgRNA knockout: sgXBP1, 1000 nM | 78.8
sgRNA knockout: sgXBP1, 10000 nM | 59.8

COc1cccc2cc(-c3nc([C@H]4CC[C@H](C(=O)O)CC4)n4ncnc(N)c34)[nH]c12 [OSI027]
Conditions | relative cell number
sgRNA knockout: sgATF3, 10 nM | 109
sgRNA knockout: sgATF3, 100 nM | 105
sgRNA knockout: sgATF3, 1000 nM | 82.7
sgRNA knockout: sgATF3, 10000 nM | 32.9
sgRNA knockout: sgATF4, 10 nM | 106
sgRNA knockout: sgATF4, 100 nM | 108
sgRNA knockout: sgATF4, 1000 nM | 81
sgRNA knockout: sgATF4, 10000 nM | 36.1
sgRNA knockout: sgATF6, 10 nM | 107
sgRNA knockout: sgATF6, 100 nM | 111
sgRNA knockout: sgATF6, 1000 nM | 92.4
sgRNA knockout: sgATF6, 10000 nM | 28.97
sgRNA knockout: sgATG7, 10 nM | 115
sgRNA knockout: sgATG7, 100 nM | 93.5
sgRNA knockout: sgATG7, 1000 nM | 79.4
sgRNA knockout: sgATG7, 10000 nM | 36.1
sgRNA knockout: sgERN1, 10 nM | 103
sgRNA knockout: sgERN1, 100 nM | 100
sgRNA knockout: sgERN1, 1000 nM | 87.9
sgRNA knockout: sgERN1, 10000 nM | 35.8
sgRNA knockout: sgHSF1, 10 nM | 96.2
sgRNA knockout: sgHSF1, 100 nM | 105
sgRNA knockout: sgHSF1, 1000 nM | 84
sgRNA knockout: sgHSF1, 10000 nM | 36.2
sgRNA knockout: sgHSF2, 10 nM | 106
sgRNA knockout: sgHSF2, 100 nM | 119
sgRNA knockout: sgHSF2, 1000 nM | 90.6
sgRNA knockout: sgHSF2, 10000 nM | 32
sgRNA knockout: sgKEAP1, 10 nM | 106
sgRNA knockout: sgKEAP1, 100 nM | 125
sgRNA knockout: sgKEAP1, 1000 nM | 79
sgRNA knockout: sgKEAP1, 10000 nM | 35.8
sgRNA knockout: sgNFE2L2, 10 nM | 104
sgRNA knockout: sgNFE2L2, 100 nM | 95.6
sgRNA knockout: sgNFE2L2, 1000 nM | 82
sgRNA knockout: sgNFE2L2, 10000 nM | 32.9
sgRNA knockout: sgSLC35F2, 10 nM | 103
sgRNA knockout: sgSLC35F2, 100 nM | 108
sgRNA knockout: sgSLC35F2, 1000 nM | 89.4
sgRNA knockout: sgSLC35F2, 10000 nM | 32.1
sgRNA knockout: sgXBP1, 10 nM | 120
sgRNA knockout: sgXBP1, 100 nM | 110
sgRNA knockout: sgXBP1, 1000 nM | 78.8
sgRNA knockout: sgXBP1, 10000 nM | 33.6

Cc1ccc(NC(=O)c2ccc(CN3CCN(C)CC3)cc2)cc1Nc1nc(-c2cccnc2)cs1 [Masitinib]
Conditions | relative cell number
sgRNA knockout: sgATF3, 10 nM | 99.6
sgRNA knockout: sgATF3, 100 nM | 85.4
sgRNA knockout: sgATF3, 1000 nM | 83.9
sgRNA knockout: sgATF3, 10000 nM | 95
sgRNA knockout: sgATF4, 10 nM | 90.5
sgRNA knockout: sgATF4, 100 nM | 80.2
sgRNA knockout: sgATF4, 1000 nM | 91.4
sgRNA knockout: sgATF4, 10000 nM | 95.4
sgRNA knockout: sgATF6, 10 nM | 97.2
sgRNA knockout: sgATF6, 100 nM | 85.8
sgRNA knockout: sgATF6, 1000 nM | 91.6
sgRNA knockout: sgATF6, 10000 nM | 92.5
sgRNA knockout: sgATG7, 10 nM | 101
sgRNA knockout: sgATG7, 100 nM | 90.6
sgRNA knockout: sgATG7, 1000 nM | 86.1
sgRNA knockout: sgATG7, 10000 nM | 93.86
sgRNA knockout: sgERN1, 10 nM | 109
sgRNA knockout: sgERN1, 100 nM | 90.7
sgRNA knockout: sgERN1, 1000 nM | 89.8
sgRNA knockout: sgERN1, 10000 nM | 104
sgRNA knockout: sgHSF1, 10 nM | 121
sgRNA knockout: sgHSF1, 100 nM | 97.7
sgRNA knockout: sgHSF1, 1000 nM | 81.81
sgRNA knockout: sgHSF1, 10000 nM | 80
sgRNA knockout: sgHSF2, 10 nM | 99.17
sgRNA knockout: sgHSF2, 100 nM | 83
sgRNA knockout: sgHSF2, 1000 nM | 89.9
sgRNA knockout: sgHSF2, 10000 nM | 113
sgRNA knockout: sgKEAP1, 10 nM | 101
sgRNA knockout: sgKEAP1, 100 nM | 110
sgRNA knockout: sgKEAP1, 1000 nM | 89.6
sgRNA knockout: sgKEAP1, 10000 nM | 87.5
sgRNA knockout: sgNFE2L2, 10 nM | 103
sgRNA knockout: sgNFE2L2, 100 nM | 76.2
sgRNA knockout: sgNFE2L2, 1000 nM | 80.6
sgRNA knockout: sgNFE2L2, 10000 nM | 95.9
sgRNA knockout: sgSLC35F2, 10 nM | 105
sgRNA knockout: sgSLC35F2, 100 nM | 81.6
sgRNA knockout: sgSLC35F2, 1000 nM | 85.5
sgRNA knockout: sgSLC35F2, 10000 nM | 90.3
sgRNA knockout: sgXBP1, 10 nM | 96.5
sgRNA knockout: sgXBP1, 100 nM | 80
sgRNA knockout: sgXBP1, 1000 nM | 83.7
sgRNA knockout: sgXBP1, 10000 nM | 105
